Assay: Lipophilicity, log D of the compound
Conditions: octanol/water

With `COC(=O)C1=C(C)NC(C)=C(C(=O)OC)C1c1ccccc1[N+](=O)[O-]` [NIFEDIPINE] the logD was 3.13.

Reference: ChEMBL document CHEMBL5214984, “Identification of Organic Anion Transporter 2 Inhibitors: Screening, Structure-Based Analysis, and Clinical Drug Interaction Risk Assessment” (J Med Chem, 2022)
